These results are taken from PubChem BioAssay AID493014 (National Center for Advancing Translational Sciences (NCATS), 2011).

This is one part of the list. Shown are side measurements of this screen, not its main read-out; they come without a call. The list favours compounds with an active or inconclusive main result. Words in brackets tell the shape of the fitted curve; partial curves, single points and poor fits give uncertain potencies.

The assay in a line: qHTS Assay to Find Inhibitors of Chronic Active B-Cell Receptor Signaling. As to conditions: ABC-DLBCL IkBa-CBG/CBR reporter, luminescence ratio (green luciferase fused to IkBa over red control in TMD8 lymphoma cells), 4 h. The gist of the method:
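TMD8 ABC-DLBCL cells carrying doxycycline-inducible green luciferase fused to IkappaBalpha plus unfused red luciferase were exposed to compounds (up to 46 uM) for 4 hrs at 37C. Activity came from the overlap-corrected green/red luminescence ratio.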

Setting [1] is: measured here: CBR red luminescence, cell number.
The mark [2] stands for this setting: measured here: IkBa-CBG green luminescence.

One may read the AC50 as the midpoint of the concentration-response curve, whichever way the signal moves. In the case of `O=C(N/N=C/c1ccccc1OC(=O)N1CCOCC1)c1cccs1`, under setting [1], the AC50 is 12.6 µM [falling, partial curve].

As to `CCCCSCCCNC(=O)c1ccc(CS(=O)(=O)c2ccccc2OC)o1`, under setting [1], the AC50 was 6.31 µM [falling, single point].

As to `CC(C)c1nnc(NC(=O)CCS(=O)(=O)c2nc(-c3cccs3)cc(C(F)(F)F)n2)s1`, the AC50 under setting [1] was 7.94 µM [falling, partial curve].

Turning to `CC1=C(C(=O)N2CCOCC2)C(c2ccsc2)C2=C(CCCC2=O)N1` (configuration not stated), the concentration at half-maximal activity (AC50) under setting [1] was 23.1 µM [rising, partial curve, poor fit].

For the compound `Cn1c(=O)c2c(ncn2CC(=O)OCC(=O)Nc2ccc(Cl)cc2)n(C)c1=O`, the concentration at half-maximal activity (AC50) under setting [1] is 0.366 µM [rising, full curve, poor fit].

Take `COc1ccccc1NC(=O)Cc1nn(C)c(=O)c2ccccc12`: the half-maximal activity concentration (AC50) under setting [1] was 20.6 µM [falling, partial curve].

On to `Cn1c2ccccc2c2c(C(=O)N3CCN(c4ccc(F)cc4)CC3)cn(C3CCCC3)c(=O)c21`, for which the AC50 under setting [1] is 35.5 µM [falling, single point].

Regarding `COCCOC(=O)/C=C1/NC(=O)CS1`, the AC50 under setting [1] was 29.1 µM [falling, partial curve, poor fit].

Consider `COc1ccc(C2/C=C\CN(C(=O)C3CCCC3)[C@H](Cc3ccccc3)C(=O)N2Cc2ccc(F)cc2)cc1` (some centres not stated), for which the AC50 under setting [1] is 11.2 µM [falling, single point].

In the case of `Nc1nc(-c2ccc(-n3nncc3-c3ccco3)cc2)cs1`, under setting [1], the concentration at half-maximal activity (AC50) was 35.5 µM [falling, single point].

Take `CCCCCCCCOC(=O)c1c(CSC(=N)N)n(C)c2cc(Br)c(OC(C)=O)cc12`: the concentration at half-maximal activity (AC50) under setting [1] was 5.62 µM [rising, single point].

Regarding `O=C(O)CCCCCCCCc1cn(CC2CCCCC2)nn1`, the AC50 under setting [1] was 0.631 µM [rising, full curve].

On to `Cc1ccccc1OCC(=O)Nc1nc2ccccc2[nH]1`, for which the AC50 under setting [1] was 11.2 µM [falling, partial curve].

Turning to `Nc1nc(Nc2ccc(Cl)cc2)nc(NCc2ccco2)c1[N+](=O)[O-]`, the half-maximal activity concentration (AC50) under setting [1] was 12.6 µM [rising, partial curve].

For the compound `COc1ccc(OCC(=O)Nc2ccccc2OC(F)F)cc1`, the AC50 under setting [1] was 9.2 µM [falling, full curve, poor fit].

For the compound `Cn1c(=O)[nH]c(=O)c2c1nc(SCC(=O)O)n2Cc1ccccc1`, the concentration at half-maximal activity (AC50) under setting [1] is 35.5 µM [rising, partial curve, poor fit].

As to `O=C1CCN(CCc2ccccc2)CCN1[C@H](CSc1ccccc1)Cc1ccccc1`, the AC50 runs as follows: under setting [1], 35.5 µM [falling, single point]; under setting [2], 14.1 µM [rising, partial curve, poor fit].

On to `COC(=O)c1cccc2c1-c1ccccc1/C2=N\NC(N)=O`, for which, under setting [1], the AC50 is 8.91 µM [falling, partial curve, poor fit].

For `CCOc1ccccc1N(C(=O)Nc1ccc(Cl)cc1)C1=NCCS1`, the AC50 under setting [1] was 4.61 µM [rising, full curve, poor fit].

For the compound `CC1(C(=O)OCC(=O)Nc2ccc(Cl)cn2)CC1(Cl)Cl` (configuration not stated), under setting [1], the AC50 is 18.4 µM [falling, single point].

Take `CC(=O)c1c(C)[nH]c(C(=O)Nc2nc(-c3ccc(-c4ccccc4)cc3)cs2)c1C`: the AC50 under setting [1] was 32.6 µM [rising, partial curve, poor fit].

In the case of `CC1CCN(c2ncnc3c2cnn3-c2ccccc2)CC1`, the concentration at half-maximal activity (AC50) under setting [1] was 0.731 µM [rising, partial curve, poor fit].

For the compound `O=[N+]([O-])c1cc(/C=N/N2CCCCC2)ccc1Cl`, the half-maximal activity concentration (AC50) under setting [1] was 7.08 µM [rising, partial curve, poor fit].

As to `O=C(N/N=C/C=C/c1ccc(Br)cc1)C(O)c1ccccc1` (configuration not stated), under setting [1], the concentration at half-maximal activity (AC50) was 5.17 µM [rising, partial curve, poor fit].

`Cc1ccc(C)c(NS(=O)(=O)c2cc(C(=O)Nc3ccccc3-c3ccccc3)ccc2Cl)c1`: the AC50 runs as follows: under setting [1], 12.6 µM [falling, single point]; under setting [2], 7.08 µM [rising, full curve, poor fit].

For the compound `COc1ccc(C(CC(=O)c2ccccc2)S(=O)(=O)c2ccc(C)cc2)cc1` (configuration not stated), under setting [1], the AC50 was 0.355 µM [rising, partial curve, poor fit].

As to `COc1ccccc1N1CCN(S(=O)(=O)c2ccc3c(c2)n(C)c(=O)n3C)CC1`, the concentration at half-maximal activity (AC50) under setting [1] was 6.31 µM [rising, single point].

`C=CCNC(=S)N1CCc2[nH]c3ccccc3c2C1`: the concentration at half-maximal activity (AC50) under setting [1] was 0.447 µM [rising, full curve, poor fit].

For `O=C(c1ccc(F)cc1)c1ccc(-c2ccc(F)cc2)nc1`, the concentration at half-maximal activity (AC50) is, setting by setting: under setting [1], 35.5 µM [falling, single point]; under setting [2], 35.5 µM [rising, partial curve, poor fit].

For `O=C(N/N=C\c1ccc2c(c1)OCO2)c1ccco1`, under setting [1], the half-maximal activity concentration (AC50) is 6.51 µM [falling, partial curve].

Consider `COc1ccc(C(C)(C)C)cc1NC(=O)COC(=O)CSCc1c(C)noc1C`, for which the half-maximal activity concentration (AC50) under setting [1] was 29.1 µM [rising, partial curve, poor fit].

Consider `CC[C@@H]1C(c2cccc(C)c2)=NN(c2ccccc2)[C@H]1C(=O)N1CCOC1=O`, for which the AC50 under setting [1] is 29.1 µM [rising, partial curve, poor fit].

`COc1ccc(CCn2c(SCCN3CCCCC3)nc3ccccc3c2=O)cc1OC`: the concentration at half-maximal activity (AC50) under setting [1] was 2.51 µM [rising, full curve, poor fit].

For `CCn1c(CNc2cccc(Cl)c2)nnc1SCC(=O)OC1CCCCC1`, the half-maximal activity concentration (AC50) under setting [1] was 29.1 µM [falling, single point].

For `Cc1ccc(Nc2cc(-n3cccn3)ncn2)c(C)c1`, the half-maximal activity concentration (AC50) under setting [1] is 0.259 µM [rising, full curve, poor fit].

For the compound `Cc1ccc(C2C3=C(CC(C)(C)CC3=O)NC3=C2C(=O)c2ccccc23)cc1` (configuration not stated), the concentration at half-maximal activity (AC50) under setting [1] was 32.6 µM [falling, partial curve, poor fit].

For the compound `CCOc1ccc(-c2nc(N)ncc2-c2ccccc2OC)c(O)c1`, the AC50 under setting [1] was 3.16 µM [rising, single point].

As to `CCOCCCNC(=O)c1ccc2c(c1)ncn2-c1ccc(CC)cc1`, the AC50 under setting [1] was 3.16 µM [rising, partial curve, poor fit].

Consider `CC12CN(C(=O)c3ccc([N+](=O)[O-])cc3)CC(C)(CN(C(=O)c3ccc([N+](=O)[O-])cc3)C1)C2=O`, for which, under setting [1], the AC50 is 25.1 µM [rising, single point].
